PubChem BioAssay AID1508597 | Cure First, 2020

Aim: 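Knock-downs altering ovarian cancer cell survival with or without PARP inhibitor rucaparib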 (primary screen)
Cells: human ovarian carcinoma lines grown from tumours: OCI-P5x (papillary serous) and OCI-C5x (clear cell)
Knock-down reagent: siRNA pool against human genes, 1.25 pmol siRNA per well
Duration: 72 h or 96 h, depending on the cell culture
Challenge: rucaparib 20 µM (about IC30) or vehicle, present until read-out
Measurement: 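ATP luminescence measured at 72 or 96 h according to the culture, then normalised and expressed as percent viability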
Scale: viability, normalised: higher = more viable cells remaining
Active means: 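Active when normalised viability falls below 80 percent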
Calls: active = viability under 80%; inactive = viability 80% or more
Here is an unselected part of about 2,100 reagents tested. 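Calls flag viability under 80% in either arm, not effects specific to rucaparib; the reference for percent is not stated.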 Unmarked entries are inactive. Reagents against one gene are numbered here. Not given: the 100% reference.

With DQX1 (DEAQ-box RNA dependent ATPase 1), rucaparib or vehicle Rucaparib, cell line OCI-C5x (clear cell), technical replicate 1, what was measured?
viability, normalised (%): 33.8 (active)

Which result is listed for DQX1 (DEAQ-box RNA dependent ATPase 1), rucaparib or vehicle Rucaparib, cell line OCI-C5x (clear cell), technical replicate 2?
viability, normalised (%): 49.5 (active)

For DQX1 (DEAQ-box RNA dependent ATPase 1), rucaparib or vehicle Rucaparib, cell line OCI-C5x (clear cell), technical replicate 3, how do the results read?
viability, normalised (%): 61.5 (active)

Which result is listed for DQX1 (DEAQ-box RNA dependent ATPase 1), rucaparib or vehicle Rucaparib, cell line OCI-P5x (serous), technical replicate 1?
viability, normalised (%): 55.7 (active)

Which result is listed for DQX1 (DEAQ-box RNA dependent ATPase 1), rucaparib or vehicle Rucaparib, cell line OCI-P5x (serous), technical replicate 2?
viability, normalised (%): 59 (active)

With DQX1 (DEAQ-box RNA dependent ATPase 1), rucaparib or vehicle Rucaparib, cell line OCI-P5x (serous), technical replicate 3, how do the results read?
viability, normalised (%): 54.8 (active)

What is on record for DQX1 (DEAQ-box RNA dependent ATPase 1), rucaparib or vehicle Vehicle, cell line OCI-C5x (clear cell), technical replicate 1?
viability, normalised (%): 45.1 (active)

With DQX1 (DEAQ-box RNA dependent ATPase 1), rucaparib or vehicle Vehicle, cell line OCI-C5x (clear cell), technical replicate 2, what was measured?
viability, normalised (%): 40.1 (active)

For DQX1 (DEAQ-box RNA dependent ATPase 1), rucaparib or vehicle Vehicle, cell line OCI-C5x (clear cell), technical replicate 3, what was measured?
viability, normalised (%): 46.3 (active)

For DQX1 (DEAQ-box RNA dependent ATPase 1), rucaparib or vehicle Vehicle, cell line OCI-P5x (serous), technical replicate 1, what does the deposit list?
viability, normalised (%): 65.2 (active)

How did the screen score DQX1 (DEAQ-box RNA dependent ATPase 1), rucaparib or vehicle Vehicle, cell line OCI-P5x (serous), technical replicate 2?
viability, normalised (%): 76.5 (active)

With DQX1 (DEAQ-box RNA dependent ATPase 1), rucaparib or vehicle Vehicle, cell line OCI-P5x (serous), technical replicate 3, what does the deposit list?
viability, normalised (%): 72.6 (active)

For NME9 (NME/NM23 family member 9) #1, rucaparib or vehicle Rucaparib, cell line OCI-C5x (clear cell), technical replicate 1, how do the results read?
viability, normalised (%): 45.3 (active)

With NME9 (NME/NM23 family member 9) #1, rucaparib or vehicle Rucaparib, cell line OCI-C5x (clear cell), technical replicate 2, how do the results read?
viability, normalised (%): 44.6 (active)

Which result is listed for NME9 (NME/NM23 family member 9) #1, rucaparib or vehicle Rucaparib, cell line OCI-C5x (clear cell), technical replicate 3?
viability, normalised (%): 45.3 (active)

With NME9 (NME/NM23 family member 9) #1, rucaparib or vehicle Rucaparib, cell line OCI-P5x (serous), technical replicate 1, how do the results read?
viability, normalised (%): 54.6 (active)

What is on record for NME9 (NME/NM23 family member 9) #1, rucaparib or vehicle Rucaparib, cell line OCI-P5x (serous), technical replicate 2?
viability, normalised (%): 41.4 (active)

With NME9 (NME/NM23 family member 9) #1, rucaparib or vehicle Rucaparib, cell line OCI-P5x (serous), technical replicate 3, what was measured?
viability, normalised (%): 49 (active)

For NME9 (NME/NM23 family member 9) #1, rucaparib or vehicle Vehicle, cell line OCI-C5x (clear cell), technical replicate 1, how do the results read?
viability, normalised (%): 55.9 (active)

What did the screen give for NME9 (NME/NM23 family member 9) #1, rucaparib or vehicle Vehicle, cell line OCI-C5x (clear cell), technical replicate 2?
viability, normalised (%): 48.1 (active)

What is on record for NME9 (NME/NM23 family member 9) #1, rucaparib or vehicle Vehicle, cell line OCI-C5x (clear cell), technical replicate 3?
viability, normalised (%): 43 (active)

With NME9 (NME/NM23 family member 9) #1, rucaparib or vehicle Vehicle, cell line OCI-P5x (serous), technical replicate 1, what was measured?
viability, normalised (%): 69.6 (active)

How did the screen score NME9 (NME/NM23 family member 9) #1, rucaparib or vehicle Vehicle, cell line OCI-P5x (serous), technical replicate 2?
viability, normalised (%): 96.5

For NME9 (NME/NM23 family member 9) #1, rucaparib or vehicle Vehicle, cell line OCI-P5x (serous), technical replicate 3, how do the results read?
viability, normalised (%): 56.1 (active)

How did the screen score NME9 (NME/NM23 family member 9) #2, rucaparib or vehicle Rucaparib, cell line OCI-C5x (clear cell), technical replicate 1?
viability, normalised (%): 61.1 (active)

What is on record for NME9 (NME/NM23 family member 9) #2, rucaparib or vehicle Rucaparib, cell line OCI-C5x (clear cell), technical replicate 2?
viability, normalised (%): 52.2 (active)

What did the screen give for NME9 (NME/NM23 family member 9) #2, rucaparib or vehicle Rucaparib, cell line OCI-C5x (clear cell), technical replicate 3?
viability, normalised (%): 62 (active)

For NME9 (NME/NM23 family member 9) #2, rucaparib or vehicle Rucaparib, cell line OCI-P5x (serous), technical replicate 1, what does the deposit list?
viability, normalised (%): 107

For NME9 (NME/NM23 family member 9) #2, rucaparib or vehicle Rucaparib, cell line OCI-P5x (serous), technical replicate 2, how do the results read?
viability, normalised (%): 109

For NME9 (NME/NM23 family member 9) #2, rucaparib or vehicle Rucaparib, cell line OCI-P5x (serous), technical replicate 3, what does the deposit list?
viability, normalised (%): 92.5

With NME9 (NME/NM23 family member 9) #2, rucaparib or vehicle Vehicle, cell line OCI-C5x (clear cell), technical replicate 1, what does the deposit list?
viability, normalised (%): 45.6 (active)

How did the screen score NME9 (NME/NM23 family member 9) #2, rucaparib or vehicle Vehicle, cell line OCI-C5x (clear cell), technical replicate 2?
viability, normalised (%): 47.4 (active)

Which result is listed for NME9 (NME/NM23 family member 9) #2, rucaparib or vehicle Vehicle, cell line OCI-C5x (clear cell), technical replicate 3?
viability, normalised (%): 47.2 (active)

With NME9 (NME/NM23 family member 9) #2, rucaparib or vehicle Vehicle, cell line OCI-P5x (serous), technical replicate 1, what does the deposit list?
viability, normalised (%): 96.4

For NME9 (NME/NM23 family member 9) #2, rucaparib or vehicle Vehicle, cell line OCI-P5x (serous), technical replicate 2, how do the results read?
viability, normalised (%): 78.5 (active)

Which result is listed for NME9 (NME/NM23 family member 9) #2, rucaparib or vehicle Vehicle, cell line OCI-P5x (serous), technical replicate 3?
viability, normalised (%): 74.1 (active)

Laid out differently: 3 of the entries above.
| gene | pool no. | rucaparib or vehicle | cell line | technical replicate | viability, normalised (%) |
| --- | --- | --- | --- | --- | --- |
| NME9 (NME/NM23 family member 9) | 2 | Rucaparib | OCI-C5x (clear cell) | 2 | 52.2 (active) |
| NME9 (NME/NM23 family member 9) | 2 | Rucaparib | OCI-C5x (clear cell) | 3 | 62 (active) |
| NME9 (NME/NM23 family member 9) | 2 | Rucaparib | OCI-P5x (serous) | 1 | 107 |
